The other results are listed elsewhere or left out.
Key:
Test in all cases: log2 fold change, soluble protein after heating vs DMSO (PISA); higher = thermal stabilisation; K562 cells, 10 uM, 30 min; active = over 0.2 and 3.5 SD of the protein, either way, in both replicates (recomputed)
[1] = compound: CN1CCN(CCOc2cc(OC3CCOCC3)c3c(Nc4c(Cl)ccc5c4OCO5)ncnc3c2)CC1 [saracatinib]
How it was run: (§1)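 K562 cells at 2×10^6 cells/mL were treated for 30 min with 10 μM compound, and aliquots were heated for 3 min over 48°C-58°C before pooling. Extraction used PBS with 0.5% NP-40 at 4°C, and soluble protein was the supernatant after 21,000xg for 90 min, measured by TMTpro 16plex LC-MS/MS with channel sums equalised. Thermal stability values, relative to control samples and from duplicates, are log2 fold changes.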

Amino acid sequences for entries named in this document (tags omitted). A change or cut given only in a name is not applied to a line headed by its entry.
UniProt Q5JU69: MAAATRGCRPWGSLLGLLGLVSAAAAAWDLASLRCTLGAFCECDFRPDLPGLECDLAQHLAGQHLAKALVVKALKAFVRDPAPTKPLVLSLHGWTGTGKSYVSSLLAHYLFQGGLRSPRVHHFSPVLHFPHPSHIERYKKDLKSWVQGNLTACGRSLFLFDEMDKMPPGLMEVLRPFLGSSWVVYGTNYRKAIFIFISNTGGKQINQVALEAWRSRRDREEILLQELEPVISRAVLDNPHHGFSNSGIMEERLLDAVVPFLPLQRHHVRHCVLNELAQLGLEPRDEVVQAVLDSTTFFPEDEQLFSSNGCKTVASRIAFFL
UniProt Q86SZ2: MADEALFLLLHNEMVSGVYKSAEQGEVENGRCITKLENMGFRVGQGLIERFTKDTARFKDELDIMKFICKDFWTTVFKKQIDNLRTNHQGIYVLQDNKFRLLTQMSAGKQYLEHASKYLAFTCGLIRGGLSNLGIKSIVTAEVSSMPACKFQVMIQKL
UniProt P02585, whole entry, looked up: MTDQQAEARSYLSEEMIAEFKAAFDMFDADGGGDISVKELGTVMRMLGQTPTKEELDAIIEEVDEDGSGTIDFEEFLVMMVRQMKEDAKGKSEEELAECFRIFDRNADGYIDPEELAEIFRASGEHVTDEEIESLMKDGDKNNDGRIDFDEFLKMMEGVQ
UniProt O14773: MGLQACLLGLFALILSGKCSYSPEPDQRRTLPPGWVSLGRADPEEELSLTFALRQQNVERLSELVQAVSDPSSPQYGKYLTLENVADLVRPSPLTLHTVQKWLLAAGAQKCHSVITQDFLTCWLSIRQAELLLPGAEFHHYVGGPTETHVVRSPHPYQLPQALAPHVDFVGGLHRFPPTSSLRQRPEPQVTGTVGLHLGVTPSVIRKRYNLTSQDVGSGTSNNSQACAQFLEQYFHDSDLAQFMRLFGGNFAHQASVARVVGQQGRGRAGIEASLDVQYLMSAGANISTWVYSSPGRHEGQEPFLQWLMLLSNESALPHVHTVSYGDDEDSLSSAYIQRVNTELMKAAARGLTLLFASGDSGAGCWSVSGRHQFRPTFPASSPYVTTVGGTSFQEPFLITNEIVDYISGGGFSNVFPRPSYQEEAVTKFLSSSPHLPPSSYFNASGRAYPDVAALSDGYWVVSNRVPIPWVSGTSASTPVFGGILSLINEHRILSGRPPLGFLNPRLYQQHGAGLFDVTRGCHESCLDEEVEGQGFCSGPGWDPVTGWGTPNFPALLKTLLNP
UniProt Q9Y3Q8: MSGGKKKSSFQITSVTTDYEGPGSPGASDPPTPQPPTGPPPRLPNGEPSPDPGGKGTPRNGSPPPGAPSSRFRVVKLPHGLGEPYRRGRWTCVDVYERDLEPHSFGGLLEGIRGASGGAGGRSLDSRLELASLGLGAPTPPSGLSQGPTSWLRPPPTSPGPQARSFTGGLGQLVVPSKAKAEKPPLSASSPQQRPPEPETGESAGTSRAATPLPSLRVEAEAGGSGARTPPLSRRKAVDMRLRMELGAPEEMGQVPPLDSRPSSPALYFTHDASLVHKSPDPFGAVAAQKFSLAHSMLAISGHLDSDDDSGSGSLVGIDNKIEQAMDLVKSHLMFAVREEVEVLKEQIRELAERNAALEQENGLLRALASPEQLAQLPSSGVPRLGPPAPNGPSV
UniProt Q92973: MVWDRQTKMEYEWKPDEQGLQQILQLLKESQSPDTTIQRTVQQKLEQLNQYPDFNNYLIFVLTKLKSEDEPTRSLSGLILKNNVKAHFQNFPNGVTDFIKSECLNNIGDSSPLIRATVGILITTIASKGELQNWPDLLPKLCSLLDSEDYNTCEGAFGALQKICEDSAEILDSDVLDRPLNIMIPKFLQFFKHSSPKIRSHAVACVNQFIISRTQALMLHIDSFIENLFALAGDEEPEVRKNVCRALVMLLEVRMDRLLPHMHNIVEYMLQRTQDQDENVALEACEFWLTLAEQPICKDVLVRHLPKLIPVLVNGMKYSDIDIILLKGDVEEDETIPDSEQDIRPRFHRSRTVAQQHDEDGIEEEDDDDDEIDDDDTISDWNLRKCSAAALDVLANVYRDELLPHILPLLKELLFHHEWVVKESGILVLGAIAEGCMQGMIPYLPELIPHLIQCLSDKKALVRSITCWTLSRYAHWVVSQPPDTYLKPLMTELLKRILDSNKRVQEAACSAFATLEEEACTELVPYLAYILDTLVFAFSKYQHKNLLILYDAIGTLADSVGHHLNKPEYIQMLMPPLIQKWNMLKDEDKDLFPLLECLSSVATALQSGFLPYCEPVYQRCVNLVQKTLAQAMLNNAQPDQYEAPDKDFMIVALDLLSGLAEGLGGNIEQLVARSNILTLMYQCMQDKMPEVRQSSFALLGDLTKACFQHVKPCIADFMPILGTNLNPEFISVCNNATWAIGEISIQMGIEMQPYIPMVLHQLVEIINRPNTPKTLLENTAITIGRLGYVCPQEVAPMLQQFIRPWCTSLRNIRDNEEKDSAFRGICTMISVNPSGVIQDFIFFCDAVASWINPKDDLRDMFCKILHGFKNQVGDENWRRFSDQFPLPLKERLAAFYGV
UniProt Q9BRZ2: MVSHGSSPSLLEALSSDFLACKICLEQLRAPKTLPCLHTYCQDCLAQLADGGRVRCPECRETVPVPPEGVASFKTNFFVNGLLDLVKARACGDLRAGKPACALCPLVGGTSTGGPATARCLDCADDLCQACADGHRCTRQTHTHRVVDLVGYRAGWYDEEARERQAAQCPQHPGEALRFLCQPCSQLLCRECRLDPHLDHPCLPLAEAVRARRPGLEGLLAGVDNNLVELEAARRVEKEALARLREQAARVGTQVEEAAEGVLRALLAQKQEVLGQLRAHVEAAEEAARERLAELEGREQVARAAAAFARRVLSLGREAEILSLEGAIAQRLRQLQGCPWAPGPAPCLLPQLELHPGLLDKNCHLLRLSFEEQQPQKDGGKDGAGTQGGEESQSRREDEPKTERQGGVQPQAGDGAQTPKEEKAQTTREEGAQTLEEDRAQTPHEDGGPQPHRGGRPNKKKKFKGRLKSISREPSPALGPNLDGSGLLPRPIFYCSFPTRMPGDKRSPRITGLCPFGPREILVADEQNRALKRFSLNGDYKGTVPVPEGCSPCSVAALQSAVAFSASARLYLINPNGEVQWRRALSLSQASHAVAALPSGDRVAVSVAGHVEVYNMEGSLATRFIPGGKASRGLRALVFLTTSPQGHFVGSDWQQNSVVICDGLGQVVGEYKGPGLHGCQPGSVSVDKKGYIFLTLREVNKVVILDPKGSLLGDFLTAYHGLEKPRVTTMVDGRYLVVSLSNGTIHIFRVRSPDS
UniProt Q15388, whole entry, looked up: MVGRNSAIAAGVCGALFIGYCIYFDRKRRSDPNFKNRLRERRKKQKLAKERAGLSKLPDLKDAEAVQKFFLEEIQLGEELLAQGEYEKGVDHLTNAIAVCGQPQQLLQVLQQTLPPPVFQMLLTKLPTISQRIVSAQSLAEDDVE

[2] = compound: CN1CCN(c2nc(C3=C(c4c[nH]c5ccccc45)C(=O)NC3=O)c3ccccc3n2)CC1 [sotrastaurin]
How it was run: as §1

[3] = compound: CN1CC[C@H](c2c(O)cc(O)c3c(=O)cc(-c4ccccc4Cl)oc23)[C@H](O)C1 [alvocidib]
How it was run: as §1

[4] = compound: CN1CCc2c(c3ccccc3n2Cc2ccc(C(=O)NO)cc2)C1 [Tubastatin A]
How it was run: as §1

[5] = compound: CNC(=O)C1=CC=CC=C1NC2=NC(=NC=C2Cl)NC3=C(C=C(C=C3)N4CCOCC4)OC
How it was run: as §1

[6] = compound: CNC(=O)c1ccc(Nc2ncc(C(F)(F)F)c(NCc3nccnc3N(C)S(C)(=O)=O)n2)cc1 [defactinib]
How it was run: as §1

[7] = compound: CNCc1ccc(-c2[nH]c3cc(F)cc4c3c2CCNC4=O)cc1 [rucaparib]
How it was run: as §1

[8] = compound: CNc1nc(-c2ccc3c(N)n[nH]c3c2)cc(N2C[C@@H](C(=O)NC3CCCCC3)CC[C@H]2C)n1
How it was run: as §1

[9] = compound: COC(=O)N[C@@H](C)CNc1nccc(-c2cn(C(C)C)nc2-c2cc(Cl)cc(NS(C)(=O)=O)c2F)n1 [encorafenib]
How it was run: as §1

[10] = compound: COC(=O)[C@H](CCSC)NC(=O)C1=C(C=C(C=C1)NC[C@H](CS)N)C2=CC=CC=C2
How it was run: as §1

[11] = compound: COC1=CC=C(C=C1)CN2C=CC3=C2C=C(C=C3)C(=O)NO
How it was run: as §1

[12] = compound: CON(C)C(=O)N1N=C(c2cc(F)ccc2F)S[C@@]1(CCCN)c1ccccc1 [filanesib]
How it was run: as §1

[13] = compound: CO[C@H]1C[C@@H]2CC[C@@H](C)[C@@](O)(O2)C(=O)C(=O)N2CCCC[C@H]2C(=O)O[C@H]([C@H](C)C[C@@H]2CC[C@H](n3cnnn3)[C@H](OC)C2)CC(=O)[C@H](C)/C=C(\C)[C@@H](O)[C@@H](OC)C(=O)[C@H](C)C[C@H](C)/C=C/C=C/C=C/1C [zotarolimus]
How it was run: as §1

[14] = compound: COc1cc(C(=O)O)ccc1NC(=O)[C@@H]1N[C@@H](CC(C)(C)C)[C@](C#N)(c2ccc(Cl)cc2F)[C@H]1c1cccc(Cl)c1F [idasanutlin]
How it was run: as §1

[15] = compound: COc1cc(Nc2ncc3c(n2)-c2ccc(Cl)cc2C(c2c(F)cccc2OC)=NC3)ccc1C(=O)O [alisertib]
How it was run: as §1

[16] = compound: COc1cc2nc(-c3cc(F)ccc3O)nc(N[C@@H]3CNC[C@H]3C(C)(C)O)c2cc1OC
How it was run: as §1

[17] = compound: COc1cc2ncnc(Nc3ccc(F)c(Cl)c3)c2cc1OCCCN1CCOCC1 [gefitinib]
How it was run: as §1

[18] = compound: COc1cccc2cc(-c3nc([C@H]4CC[C@H](C(=O)O)CC4)n4ncnc(N)c34)[nH]c12
How it was run: as §1

[19] = compound: CS(=O)(=O)CCNCc1ccc(-c2ccc3ncnc(Nc4ccc(OCc5cccc(F)c5)c(Cl)c4)c3c2)o1 [lapatinib]
How it was run: as §1

[20] = compound: CS(=O)(=O)N1CCN(Cc2cc3nc(-c4cccc5[nH]ncc45)nc(N4CCOCC4)c3s2)CC1 [pictilisib]
How it was run: as §1

Measured: log2 fold change

TOR2A (UniProt Q5JU69)
inactive: [1] -0.007 | [2] 0.006 | [3] -0.029 | [4] 0.079 | [5] -0.014 | [6] -0.066 | [7] -0.036 | [8] 0.031 | [9] 0.064 | [10] -0.265 | [11] -0.003 | [12] -0.123 | [13] 0.091 | [14] 0.076 | [15] -0.117 | [16] 0.083 | [17] -0.011 | [18] 0.114 | [19] 0.023 | [20] -0.035

TRAPPC6B (UniProt Q86SZ2)
inactive: [1] 0.035 | [2] -0.068 | [4] 0.031 | [5] -0.034 | [6] -0.046 | [7] 0.012 | [8] 0.008 | [9] -0.02 | [10] 0.022 | [11] 0.055 | [12] -0.023 | [13] 0.012 | [14] -0.023 | [15] -0.009 | [16] -0.003 | [17] 0.042 | [18] 0.028 | [19] 0.019 | [20] 0.02

TNNC2 (UniProt P02585)
inactive: [1] 0.007 | [2] 0.095 | [4] -0.139 | [5] -0.035 | [6] 0.012 | [7] -0.025 | [8] -0.056 | [9] -0.049 | [10] 0.037 | [11] -0.037 | [12] 0.038 | [13] -0.006 | [14] 0.007 | [15] -0.172 | [16] 0.014 | [17] 0.008 | [18] 0.045 | [19] -0.027 | [20] 0.025

TPP1 (UniProt O14773)
inactive: [1] -0.008 | [2] -0.005 | [4] 0.005 | [5] 0.007 | [6] 0.049 | [7] -0.013 | [8] -0.013 | [9] 0.018 | [10] 0.011 | [11] 0.024 | [12] -0.175 | [13] 0 | [14] -0.008 | [15] 0.168 | [16] -0.072 | [17] -0.039 | [18] 0.087 | [19] -0.026 | [20] 0.011

TSC22D4 (UniProt Q9Y3Q8)
inactive: [1] 0.018 | [2] 0.01 | [3] -0.053 | [4] -0.001 | [5] 0.003 | [6] -0.002 | [7] 0.004 | [8] 0.033 | [9] -0.039 | [10] 0 | [11] -0.029 | [12] -0.129 | [13] 0.02 | [14] 0.031 | [15] -0.012 | [16] 0.054 | [17] 0.021 | [18] 0.006 | [19] 0.002 | [20] 0.007

TNPO1 (UniProt Q92973)
inactive: [1] 0.034 | [2] -0.062 | [4] -0.064 | [5] -0.013 | [6] -0.123 | [7] -0.04 | [8] 0.009 | [9] 0.029 | [10] 0.006 | [11] -0.008 | [12] -0.096 | [13] 0.012 | [14] -0.023 | [15] -0.074 | [16] -0.156 | [17] -0.001 | [18] -0.012 | [19] -0.005 | [20] -0.02

TRIM56 (UniProt Q9BRZ2)
inactive: [1] -0.069 | [2] -0.057 | [3] 0.124 | [4] 0.096 | [5] 0.004 | [7] 0.063 | [8] 0.087 | [9] 0.069 | [11] -0.083 | [12] 0.341 | [13] 0.018 | [14] 0.074 | [15] -0.046 | [16] 0.033 | [17] -0.031 | [18] -0.14 | [19] 0.072 | [20] -0.054

TOMM20 (UniProt Q15388)
inactive: [1] 0.012 | [2] -0.005 | [4] -0.031 | [5] -0.028 | [6] -0.011 | [7] -0.009 | [8] -0.034 | [9] -0.131 | [10] 0.033 | [11] -0.011 | [12] -0.213 | [13] 0.005 | [14] -0.022 | [15] -0.029 | [16] -0.25 | [17] 0.005 | [18] -0.001 | [19] 0.045 | [20] 0.007

Reference: the supplement of paper PMC10849652
